# According to patent publication US9616075B2, “Method of treating and preventing brain impairment using Na+-K+-2Cl-cotransporter isoform 1 inhibitors” (University of Rochester, priority 2012, dated 2017):
# At least one compound was matched to its structure with a doubt left.
# System: pyramidal neurons
# Test: Whole-cell voltage clamp with ramp voltage and GABA application in acute cortical slices (EGABA)
# Type: cell-based, mouse
# Details: ramp voltage after GABA application
smiles,measurement,value
CN1CCc2cc3c(cc2[C@H]1[C@@H]1OC(=O)c2c1ccc1c2OCO1)OCO3 [bicuculline],Effect on GABA-induced current,completely blocked
